# Screen size: about 320,000 compounds; about 2,100 (0.66%) were called active. Inconclusive results, whose numbers are uncertain, are shown with a selection of clear calls. The call rests on the fitted dose curve; in most records, active means well fitted inhibition curve with a large enough effect in the signal ratio, with a control signal flat (not every such curve was filed as active); inconclusive means small, poorly fitted or top-dose-only effect, or effect the other way, or a change in a side signal; inactive means flat fitted curve, though single readings scatter; the % refers to the signal ratio. Potencies beside an inconclusive call are fits to weak or partial responses and may not hold up.
# Experiment: qHTS Assay for Lipid Storage Modulators in Drosophila S3 Cells
# Details: BODIPY lipid droplet fluorescence, 18-24 h, cells fed with added oleic acid; lipid storage change, negative = inhibition: at 46.1 µM (top of the series) unless noted
# Method in brief: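 Drosophila S3 cells loaded with oleic acid (400 uM, as added) and compounds at several concentrations; lipid droplets imaged by 488-nm laser-scanning cytometry, 500–530 nm intensity and object ratio to cell channel. Percent activity normalized to 20 uM Triacsin C.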
# On the % scale 0 is the no-effect control and ±100 the full control effect; potency means the concentration at half of the fitted maximal effect.
SMILES,"lipid storage change, negative = inhibition",Potency
Cc1nc2nc[nH]n2c(=O)c1CCOC(=O)c1ccccc1F,inactive,–
COc1cc(C=O)ccc1OC(=O)c1cccnc1,inconclusive: 56.9%,–
N#Cc1ccc(C23CC4(C2)[C@H](CN(CC2CCCCC2)[C@@H]4c2ccccc2)C3c2ccc(Cl)nc2)cc1 (some centres not stated),inconclusive: 12.8%,–
Cc1ccccc1C1CC(c2ccc(F)cc2)Nc2nc(N)nn21 (configuration not stated),inconclusive: 33.9%,–
CCOc1ccc(S(=O)(=O)NCCC(=O)N2CCN(Cc3ccccc3)CC2)cc1,–,"inconclusive: 7.31 µM [falling, partial curve]"
FC(F)Sc1ccc(NC(=S)NC2CCCC2)cc1,inconclusive: 16.2%,–
O=C(NNC(=O)c1ccccc1Cl)c1ccco1,–,"inconclusive: 0.116 µM [falling, full curve, poor fit]"
O=C(CCC(=O)c1cccs1)NNC(=O)c1ccc(Cl)cc1,inconclusive: 4.7%,–
COc1cc(OC)c(C(=O)Nc2ccc(S(=O)(=O)Nc3ncccn3)cc2)cc1OC,inconclusive: 59.5%,–
COc1ccc(NC(=O)CO/N=C(\C)c2cccs2)cc1,inconclusive: -1.38%,–
COc1cc(CN2CCN(C(=O)c3ccccc3F)CC2)cc(OC)c1OC,inconclusive: 10.4%,–
COc1ccc(C(=O)/C(=C/O)N=Nc2ccc(F)cc2)cc1,–,"inconclusive: 0.0731 µM [falling, full curve, poor fit]"
COC(=O)c1ccc(C(=O)OC)c(NC(=O)CN2CCCCC2)c1,inconclusive: 3.87%,–
Cn1c(CNc2nc3ccccc3n2C)nc2ccccc21,inconclusive: 6.83%,–
Cc1ccc(CSc2nc3ccccc3cc2C=O)cc1,inconclusive: -9.76%,–
Cc1ccccc1OCCn1c(=S)[nH]c2ccccc21,–,"inconclusive: 29.1 µM [activator, single point]"
CCOc1ccc(CN(C)C(=O)c2ccc3ccccc3n2)cc1,–,"inconclusive: 0.461 µM [falling, full curve, poor fit]"
COc1ccc(CC(=O)Nc2nc(C)cs2)cc1OC,–,"inconclusive: 2.91 µM [activator, partial curve]"
Cc1nc2sc(C(c3ccc(C(C)C)cc3)N3CCN(CCO)CC3)c(O)n2n1 (configuration not stated),–,"inconclusive: 29.1 µM [falling, single point]"
O=c1[nH]c2ccccc2[n+]([O-])c1-c1ccccc1,inconclusive: 8.58%,–
Cc1c(OC(=O)CNC(=O)OC(C)(C)C)ccc2c3c(c(=O)oc12)CCC3,–,"inconclusive: 32.6 µM [falling, single point]"
COCCn1c(=O)[nH]c2cc(C(=O)NCCc3ccc(S(N)(=O)=O)cc3)ccc2c1=O,–,"inconclusive: 0.0058 µM [falling, full curve, poor fit]"

# Not a retest: an excerpt of the list.
SMILES,"lipid storage change, negative = inhibition",Potency
COc1cc(C=O)ccc1OC(=O)c1cccnc1,inconclusive: 56.9%,–
N#Cc1ccc(C23CC4(C2)[C@H](CN(CC2CCCCC2)[C@@H]4c2ccccc2)C3c2ccc(Cl)nc2)cc1 (some centres not stated),inconclusive: 12.8%,–
Cc1ccccc1C1CC(c2ccc(F)cc2)Nc2nc(N)nn21 (configuration not stated),inconclusive: 33.9%,–
CCOc1ccc(S(=O)(=O)NCCC(=O)N2CCN(Cc3ccccc3)CC2)cc1,–,"inconclusive: 7.31 µM [falling, partial curve]"
FC(F)Sc1ccc(NC(=S)NC2CCCC2)cc1,inconclusive: 16.2%,–
O=C(NNC(=O)c1ccccc1Cl)c1ccco1,–,"inconclusive: 0.116 µM [falling, full curve, poor fit]"
O=C(CCC(=O)c1cccs1)NNC(=O)c1ccc(Cl)cc1,inconclusive: 4.7%,–

# Reference: PubChem BioAssay AID2685 (National Center for Advancing Translational Sciences (NCATS), 2010)
